This is an account of results in publication PMC7819943, “Rice protein-binding microarrays: a tool to detect cis-acting elements near promoter regions in rice”.

The chains behind the UniProt entries cited, without tags or fusion partners.
UniProt Q0JBA9, entry or part of it: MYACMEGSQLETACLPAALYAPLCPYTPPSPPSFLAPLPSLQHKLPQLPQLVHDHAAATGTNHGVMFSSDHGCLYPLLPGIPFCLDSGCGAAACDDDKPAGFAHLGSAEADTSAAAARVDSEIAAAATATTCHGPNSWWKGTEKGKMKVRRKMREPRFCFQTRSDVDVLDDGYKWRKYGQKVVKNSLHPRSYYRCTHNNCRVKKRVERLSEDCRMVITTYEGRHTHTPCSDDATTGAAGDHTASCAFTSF

The other results are listed elsewhere or left out.

The assay concerns the target OsWRKY34 (Oryza sativa, UniProt Q0JBA9 1-250). Description: protein-binding microarray (RPBM); PBS, 2% BSA, 51.3 ng/ul salmon testes DNA, 50 uM zinc acetate, 200 nM TF, 25 C, 1 h; high values mean tight binding. Conditions: protein: recombinant; tags: N-terminal polyhistidine and DsRed monomer fusion (pET32a); label: CyDye5-dUTP incorporated in the synthesized complementary strand; 3' TTTTT single-stranded linker to array surface; dsDNA, one strand shown. The method in brief: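 Transcription factors were each fused at the N-terminus to a polyhistidine tag plus DsRed and expressed in E. coli BL21-CodonPlus before Ni–NTA purification. Binding to a double-stranded custom Agilent array was carried out with 200 nM protein at 25 °C for 1 h in PBS, 2% BSA, salmon testes DNA and 50 µM zinc acetate. The binding signal is per-feature fluorescence intensity, in arbitrary units, on an Axon 4000B scanner.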
With “CTATACTATTAATATCTGGTCCTACCTGTTATACATACATCGGAGTCACCTAGTGCAG”, the binding signal is 8370 fluorescence intensity (a.u.).

On to “ATAATCCGAGTGCTTCAATTTCTTCTGTATTGATCTCCCTCGGAGTCACCTAGTGCAG”, for which the binding signal was 8720 fluorescence intensity (a.u.).

In the case of “TTCTACACTCTCTTGATCAGCTCTCACCACTATGTACACTCGGAGTCACCTAGTGCAG”, the binding signal is 8860 fluorescence intensity (a.u.).

Consider “CCGGTTTAGTTCTCGAAGATGTTCGTAGGGGTAGGATTTGCGGAGTCACCTAGTGCAG”, for which the binding signal is 11000 fluorescence intensity (a.u.).

As for “GTATGTTTTTTTTTTCTTATTGATTTTATGGTAATTCTGTCGGAGTCACCTAGTGCAG”, the binding signal is 8930 fluorescence intensity (a.u.).

With “TCAGGTTCGTCAGGCGGCCCTAGCCAAAGCCTGCATTCATCGGAGTCACCTAGTGCAG”, the binding signal was 8680 fluorescence intensity (a.u.).

For the sequence “GTGATCCGGTGCCCTCTGACCCGCAACTTCCTTTTGGCACCGGAGTCACCTAGTGCAG”, the binding signal was 8460 fluorescence intensity (a.u.).

As to “TTTGGTCGTCAAACAGTGATGACTCTCCTGGCCGCTGTCTCGGAGTCACCTAGTGCAG”, the binding signal was 8980 fluorescence intensity (a.u.).

On to “CACTTGCTTATCTCAATCAACCACGTCATCTCTAATTTTACGGAGTCACCTAGTGCAG”, for which the binding signal was 8940 fluorescence intensity (a.u.).

“ATGGGCGGGCAAGGGGCGTGGATAGGCGGAGTTGCCATACCGGAGTCACCTAGTGCAG”: the binding signal was 8790 fluorescence intensity (a.u.).

With “TTCAAGGTGACTCTTCCTATGCCCAGGGTCCAGTTTTTTCCGGAGTCACCTAGTGCAG”, the binding signal is 11500 fluorescence intensity (a.u.).

As to “ACAAATCGAGGGTGCGTTCGTTCCTGGGAGGGGTTTATGTCGGAGTCACCTAGTGCAG”, the binding signal is 13200 fluorescence intensity (a.u.).

On to “AGTGAATTGAGGGATTTATAGTGAACTTACTCCTTATCTTCGGAGTCACCTAGTGCAG”, for which the binding signal was 8060 fluorescence intensity (a.u.).

“TCATTGCTCGTGTCCTTGTTCTACGCCTACGTTAGCTGTCCGGAGTCACCTAGTGCAG”: the binding signal is 9860 fluorescence intensity (a.u.).

In the case of “AAATACACTTTACCTACCTATCACTGTTACTACTTTTTTCCGGAGTCACCTAGTGCAG”, the binding signal is 8410 fluorescence intensity (a.u.).

Take “GTTTTATTTGTGTTTTGCTTTTCTTTTGGTCTCTCTTTTTCGGAGTCACCTAGTGCAG”: the binding signal is 14300 fluorescence intensity (a.u.).

Regarding “TTTGTGGTTTGGATGTTTTTATCTGTGATTGAATGTATGACGGAGTCACCTAGTGCAG”, the binding signal is 9210 fluorescence intensity (a.u.).

With “GAGTTGGTTGTGGAGTGCACTGGAGAAGGGGTGGTTTTTGCGGAGTCACCTAGTGCAG”, the binding signal was 9160 fluorescence intensity (a.u.).

As to “CATTTCTTGCTATCATTTTTTCGGGAGGCTTGTATGCCATCGGAGTCACCTAGTGCAG”, the binding signal was 9200 fluorescence intensity (a.u.).

On to “TTCTTAACATGTTCGCATATGAAAATAGACTTATTTTTTACGGAGTCACCTAGTGCAG”, for which the binding signal is 8130 fluorescence intensity (a.u.).

Take “TGGAGGGGTGAGGGAGGTGGAGCAGACGTCAGAGGGGAAGCGGAGTCACCTAGTGCAG”: the binding signal was 9450 fluorescence intensity (a.u.).

As for “CGCCAACCGCCTCGTCGAGCTCTACTCCCGCGCGGGCCTCCGGAGTCACCTAGTGCAG”, the binding signal was 9200 fluorescence intensity (a.u.).

In the case of “ATATGCTCTTTTCCACCATTTTGCAGGTTAAGGATAGACCCGGAGTCACCTAGTGCAG”, the binding signal was 9560 fluorescence intensity (a.u.).

“TTCGCTTTTTCCTTTTTTCTGATTATTTTTTTAATTTTTACGGAGTCACCTAGTGCAG”: the binding signal was 8190 fluorescence intensity (a.u.).

In the case of “CCTCATCTCATGCCTCACTCGCCTAGAACCCCTCCTCCTCCGGAGTCACCTAGTGCAG”, the binding signal is 9310 fluorescence intensity (a.u.).

“ACCACCCACCGGTTTCGGTTTCGCCCACCATTGGAGGCGACGGAGTCACCTAGTGCAG”: the binding signal was 11500 fluorescence intensity (a.u.).

For “AGGGCACGGGAACGGGAGACGGGTGGGAGGGATTCGTATGCGGAGTCACCTAGTGCAG”, the binding signal was 10500 fluorescence intensity (a.u.).

For “TTCTGTCGCCTCATTTATCTTCTTTCTAGTATTCTGCATTCGGAGTCACCTAGTGCAG”, the binding signal was 8170 fluorescence intensity (a.u.).

On to “TTTACATTACCGGTTGACCACTAAATTTCGAGCTATATCGCGGAGTCACCTAGTGCAG”, for which the binding signal was 8500 fluorescence intensity (a.u.).

In the case of “CAAACCTTCGTCTTCGTCTTCCTCTCGCCGCTGATTCGATCGGAGTCACCTAGTGCAG”, the binding signal is 11000 fluorescence intensity (a.u.).

“TGGTTGTCTTCAGATTCGATGCGTATGTGCTGAATGTCTACGGAGTCACCTAGTGCAG”: the binding signal was 8150 fluorescence intensity (a.u.).

Consider “TCTTTCTATCATATGCTGCCTGACTTCATTCGTTATATGACGGAGTCACCTAGTGCAG”, for which the binding signal is 9570 fluorescence intensity (a.u.).

Turning to “TTTCATTTTTCATCGTCTTTTTTTTCAATCCGATATCTTTCGGAGTCACCTAGTGCAG”, the binding signal was 9340 fluorescence intensity (a.u.).

For “AACAGCCTGTTTTTGTGTGTTTTTTTCGTAAGTAATTAGTCGGAGTCACCTAGTGCAG”, the binding signal is 8760 fluorescence intensity (a.u.).

Turning to “CATATATTGGTGTTGTGTGTGGGTGGGTGGGGCGGTGCTTCGGAGTCACCTAGTGCAG”, the binding signal is 30900 fluorescence intensity (a.u.).

Consider “GTGGTAGAGGCGGCGGGGCGGGAGGTCGAACCGGAGCTGACGGAGTCACCTAGTGCAG”, for which the binding signal was 9910 fluorescence intensity (a.u.).

As for “GCGATAGTGACATATACCCCTAGTTTTATTGCAATCTGACCGGAGTCACCTAGTGCAG”, the binding signal was 8200 fluorescence intensity (a.u.).

With “TCTGTTCCCCTCGCCGTCGCCGCCACCGCCACCGTGACCGCGGAGTCACCTAGTGCAG”, the binding signal was 9010 fluorescence intensity (a.u.).

“CTCTTCCATCTCCTCCACTTCTCAATACCTCTTCATTCTCCGGAGTCACCTAGTGCAG”: the binding signal was 9440 fluorescence intensity (a.u.).

Regarding “CACCGACCTGTCCTCCGACCAGAATTCCGATCGCCACCCCCGGAGTCACCTAGTGCAG”, the binding signal was 8140 fluorescence intensity (a.u.).

Consider “ACTCATACTCTCTACGTCCATTTGATATTTTACTTAGTCACGGAGTCACCTAGTGCAG”, for which the binding signal is 10500 fluorescence intensity (a.u.).

Regarding “GCTAGGGGTAGGGAAGGAAAAACATACATGTGGCTTCGTGCGGAGTCACCTAGTGCAG”, the binding signal is 8710 fluorescence intensity (a.u.).
